# Reference: the supplement of paper PMC10398353
# “And” between values parts separate entries of the source, which are not always exact repeats. Equal entries are not always repeated. Structures can show the parent of a compound that is named as a salt. ± gives the standard deviation of the averaged measurements. Some of the results follow. Single values of this set are uncertain.
# System: Salmonella enterica serovar Typhimurium ST313 D23580
# Assay: normalized bacterial growth (OD600 20 h minus 0 h, interquartile-mean normalized) (fraction of plate interquartile mean); higher = more bacterial growth (less inhibition)
# Settings: LPM (pH 5.8, low phosphate, low Mg2+), concentration: 10 µM, temperature: 37 °C
row,SMILES,normalized bacterial growth
1,CO[C@H]1[C@@H](O)[C@@H](C)O[C@H](O[C@H]2[C@H](Oc3cccc4c(O)c5c(=O)oc6ccc(C)c7c(=O)oc(c34)c5c67)O[C@H](C)[C@H](O)[C@@H]2O)[C@@H]1O,0.922
2,CNC(=O)CSP(=S)(OC)OC,1.15
3,CCSCC[C@H](N)C(=O)O,1.04
4,CCNc1nc(Cl)nc(NC(C)C)n1,1
5,O=c1c2ccccc2[se]n1-c1ccccc1 [Ebselen],0.148
6,CCCN(CCC)C1Cc2cc(OC)c(OC)cc2C1,1.18
7,Cc1ccc(/N=C/N(C)/C=N/c2ccc(C)cc2C)c(C)c1,1.39
8,N=C(NCCC[C@H](N)C(=O)O)N[N+](=O)[O-] [NG-Nitro-L-arginine],0.819
9,C[C@]12CC[C@H]3[C@@H](CCC4=CC(=O)CC[C@@]43C)[C@@H]1CC[C@@H]2O,1.07
10,COc1cc2c3cc1Oc1c(OC)c(OC)cc4c1[C@@H](Cc1cccc(c1)Oc1ccc(c(O)c1)C[C@@H]3N(C)CC2)N(C)CC4,0.916
11,O=c1ccc2cc(O[C@@H]3O[C@H](CO)[C@@H](O)[C@H](O)[C@H]3O)c(O)cc2o1,0.669 and 0.618
12,O=c1ccc2cc(O[C@@H]3O[C@H](CO)[C@@H](O)[C@H](O)[C@H]3O)c(O)cc2o1 [Esculin Hydrate],1.17
13,CC(C)NC(C)Cc1ccc(I)cc1 (stereo not drawn) [Iofetamine hydrochloride],0.992
14,COC(=O)N1CCN(C(=O)Cc2ccc(Cl)c(Cl)c2)C(CN2CCCC2)C1 (stereo not drawn),1.03
15,NCC(O)c1ccc(O)cc1 (stereo not drawn) [()-Octopamine hydrochloride],0.914
16,CC[C@H]1CN2CCc3c([nH]c4ccccc34)[C@H]2C[C@@H]1/C(=C\OC)C(=O)OC,0.865
17,NCC#Cc1ccccc1 [3-Phenylpropargylamine hydrochloride],1.1
18,CC(NC(C)(C)C)C(=O)c1cccc(Cl)c1 (stereo not drawn) [Bupropion hydrochloride],1.21
19,N[C@]1(C(=O)O)CC[C@H](C(=O)O)C1 [trans-()-ACPD],1.28
20,Oc1ccc2c3c1O[C@H]1c4[nH]c5ccccc5c4C[C@@]4(O)[C@@H](C2)N(CC2CC2)CC[C@]314 [Naltrindole hydrochloride],0.919
21,CCN1C[C@]2(C)CC[C@H](O)[C@]34C1[C@@H](C[C@H]23)[C@@]1(O)C[C@H](OC)[C@H]2C[C@@H]4[C@@H]1[C@H]2O [Karakoline],0.977
22,CCN1C[C@]2(C)CC[C@H](O)[C@]34C1[C@@H](C[C@H]23)[C@@]1(O)C[C@H](OC)[C@H]2C[C@@H]4[C@@H]1[C@H]2O,1.11

# Quoted at random: 2 entries already listed.
row,SMILES,normalized bacterial growth
10,COc1cc2c3cc1Oc1c(OC)c(OC)cc4c1[C@@H](Cc1cccc(c1)Oc1ccc(c(O)c1)C[C@@H]3N(C)CC2)N(C)CC4,0.916
16,CC[C@H]1CN2CCc3c([nH]c4ccccc34)[C@H]2C[C@@H]1/C(=C\OC)C(=O)OC,0.865

# (continued)

row,SMILES,normalized bacterial growth
1,CC(=O)[C@H]1CC[C@H]2[C@@H]3CC[C@H]4C[C@H](O)CC[C@]4(C)[C@H]3CC[C@]12C,1.1
2,CC(=O)[C@H]1CC[C@H]2[C@@H]3CC[C@H]4C[C@H](O)CC[C@]4(C)[C@H]3CC[C@]12C [5alpha-Pregnan-3alpha-ol-20-one],0.787
3,C=CCSSCC=C,0.743
4,"CN1CC[C@@]2(C)c3cc(O)ccc3N(C)C12 (single isomer, unassigned; (-)) [(-)-Eseroline fumarate]",1.12
5,NCC(CC(=O)O)c1ccc(Cl)cc1 (stereo not drawn) [()-Baclofen],1.04
6,CC(=O)O[C@H]1[C@H]2[C@@H](OC(=O)Cc3ccccc3)[C@@H](C)C[C@]2(OC(C)=O)C(=O)/C(C)=C/[C@@H]2[C@H](CC[C@@]13CO3)C2(C)C,0.664 ± 0.039
7,COc1ccc2c(c1O)-c1c(OC)c(OC)cc3c1[C@H](C2)N(C)CC3,0.918
8,NC(=O)c1cc([N+](=O)[O-])cc([N+](=O)[O-])c1,1.09
9,O=C1CC[C@@]2(O)[C@H]3Cc4ccc(O)c5c4[C@@]2(CCN3CC2CC2)[C@H]1O5,0.79
10,O=C1CC[C@@]2(O)[C@H]3Cc4ccc(O)c5c4[C@@]2(CCN3CC2CC2)[C@H]1O5 [Naltrexone hydrochloride dihydrate],1.24
11,O=C1CC[C@@]2(O)[C@H]3Cc4ccc(O)c5c4[C@@]2(CCN3CC2CC2)[C@H]1O5 [Naltrexone hydrochloride],1.09
12,CC1=C2C(=O)[C@H]3[C@@H](CC=C4C[C@@H](O)CC[C@@]43C)[C@@H]2CC[C@]12O[C@@H]1C[C@H](C)CN[C@H]1[C@H]2C,1.06
13,C[C@@H]1Cc2c(Cl)cc(C(=O)N[C@@H](Cc3ccccc3)C(=O)O)c(O)c2C(=O)O1,1.13
14,NC(CP(=O)(O)O)C(=O)O (stereo not drawn) [()-2-Amino-3-phosphonopropionic acid],1.01
15,CN[C@@H]1[C@@H](O)[C@@H](O[C@@H]2[C@@H](O)[C@H](O[C@H]3O[C@H](CN)CC[C@H]3N)[C@@H](N)C[C@H]2N)OC[C@]1(C)O.CN[C@@H]1[C@@H](O)[C@@H](O[C@@H]2[C@@H](O)[C@H](O[C@H]3O[C@H]([C@@H](C)N)CC[C@H]3N)[C@@H](N)C[C@H]2N)OC[C@]1(C)O.CN[C@@H]1[C@@H](O)[C@@H](O[C@@H]2[C@@H](O)[C@H](O[C@H]3O[C@H]([C@@H](C)NC)CC[C@H]3N)[C@@H](N)C[C@H]2N)OC[C@]1(C)O,1.09
16,CN[C@@H]1[C@@H](O)[C@@H](O[C@@H]2[C@@H](O)[C@H](O[C@H]3O[C@H](CN)CC[C@H]3N)[C@@H](N)C[C@H]2N)OC[C@]1(C)O.CN[C@@H]1[C@@H](O)[C@@H](O[C@@H]2[C@@H](O)[C@H](O[C@H]3O[C@H]([C@@H](C)N)CC[C@H]3N)[C@@H](N)C[C@H]2N)OC[C@]1(C)O.CN[C@@H]1[C@@H](O)[C@@H](O[C@@H]2[C@@H](O)[C@H](O[C@H]3O[C@H]([C@@H](C)NC)CC[C@H]3N)[C@@H](N)C[C@H]2N)OC[C@]1(C)O [Gentamicine sulfate],0.84
17,"CN1CCc2cc(O)cc3c2[C@H]1Cc1ccc(O)c(O)c1-3 [""R(-)-2,10,11-Trihydroxyaporphine hybrobromide""]",0.965
18,N[C@@H]1C[C@H]1c1ccccc1 [Tranylcypromine hydrochloride],0.976 ± 0.076
19,CCCN(CCC)[C@@H]1CCc2c(F)ccc(O)c2C1 [R(+)-UH-301 hydrochloride],0.901
20,COc1cc(C(=O)OC2CC3CCC(C2)N3C)ccc1O (stereo not drawn),1.07
21,COc1cc(C(=O)OC2CC3CCC(C2)N3C)ccc1O (stereo not drawn) [Fillalbin],0.991
